# Test results taken from paper PMC5972614.
# These are yes or no findings as the source states them, for the method shown. A result given as binding can be weak or reduced; the word gives no strength. For part of these data: Where a sequence is shown, tags or fusion partners need not be part of it. For part of these data: In cells and extracts the contact can be indirect.
# Assays:
# [1] = target: Flag-tagged P0^BrA (P0^BrA–Flag) (Brassica yellows virus genotype A (BrYV-A)); experiment: co-IP; proteins co-expressed in N. benthamiana leaves by agro-infiltration, 2 dpi; clarified lysate on anti-Flag M2 agarose beads 3 h; 25 mM Tris-HCl pH 7.5, 150 mM NaCl, 1 mM EDTA, 10% glycerol, 0.1% Triton X-100; immunoblot
# [2] = target: BD–P0^BrA (Brassica yellows virus genotype A P0 protein fused to the GAL4 binding domain) (Brassica yellows virus genotype A (BrYV-A)); experiment: two-hybrid; directed GAL4 yeast two-hybrid (Matchmaker System 3), yeast mating, BD and AD fusions, growth on SD/−WL and SD/−AHLW, 30 °C
# [3] = target: BD–P0^BrA (Brassica yellows virus genotype A P0 protein fused to the GAL4 binding domain) (Brassica yellows virus genotype A (BrYV-A)); experiment: two-hybrid; Clontech Matchmaker GAL4 Two-Hybrid System 3 library screen: BD–P0^BrA bait (strain Y187) against an Arabidopsis cDNA library
Binder,binding [1],binding [2],binding [3]
"AtRAF2 as used in the co-immunoprecipitation with P0^BrA (protein, UniProt Q9LU63 51-220) SNLAQDFLGDFGARDPYPEEIASQFGDKVLGCQSTEHKILIPNASVLSLSQLQCSPVSSSQPPLSGDDARTLLHKVLGWSIVDNEAGGLKIRCMWKVRDFGCGVELINRIHKVAEASGHYPSLHLESPTQVRAELFTSSIGGLSMNDFIMAAKIDDIKTSDLSPRKRAWA",binds,,
"AtRAF2 (Arabidopsis Rubisco assembly factor 2), GAL4 yeast two-hybrid fusions (AD–AtRAF2; BD fusion) (protein, UniProt Q9LU63 1-220) MAATSSSPPCNISASSLLLRQPSRSILKVFGLLPPVSRNNRKLGRLTVTRSNLAQDFLGDFGARDPYPEEIASQFGDKVLGCQSTEHKILIPNASVLSLSQLQCSPVSSSQPPLSGDDARTLLHKVLGWSIVDNEAGGLKIRCMWKVRDFGCGVELINRIHKVAEASGHYPSLHLESPTQVRAELFTSSIGGLSMNDFIMAAKIDDIKTSDLSPRKRAWA",,binds,binds
